Here are results for 8 molecules from patent publication US11220671B2, “Methods for the maturation of cardiomyocytes on amniotic fluid cell-derived ECM, cellular constructs, and uses for cardiotoxicity and proarrhythmic screening of drug compounds” (STEMBIOSYS, INC., priority 2019, dated 2022).

The nature of the series: Composition of amniotic fluid cell-derived ECM by mass spectrometry (total spectra count). Conditions: mass spectrometry, label = protein component; for Total Spectra Count Matrix A: amniotic fluid cell-derived ECM Matrix A; for Total Spectra Count Matrix B: amniotic fluid cell-derived ECM Matrix B; for Total Spectra Count Matrix C: amniotic fluid cell-derived ECM Matrix C; for Total Spectra Count Matrix D: amniotic fluid cell-derived ECM Matrix D.

B1: N-acylneuraminate cytidylyltransferase (protein, UniProt Q8NFW8 1-434, looked up)
N-acylneuraminate …: MDSVEKGAATSVSNPRGRPSRGRPPKLQRNSRGGQGRGVEKPPHLAALILARGGSKGIPLKNIKHLAGVPLIGWVLRAALDSGAFQSVWVSTDHDEIENVAKQFGAQVHRRSSEVSKDSSTSLDAIIEFLNYHNEVDIVGNIQATSPCLHPTDLQKVAEMIREEGYDSVFSVVRRHQFRWSEIQKGVREVTEPLNLNPAKRPRRQDWDGELYENGSFYFAKRHLIEMGYLQGGKMAYYEMRAEHSVDIDVDIDWPIAEQRVLRYGYFGKEKLKEIKLLVCNIDGCLTNGHIYVSGDQKEIISYDVKDAIGISLLKKSGIEVRLISERACSKQTLSSLKLDCKMEVSVSDKLAVVDEWRKEMGLCWKEVAYLGNEVSDEECLKRVGLSGAPADACSTAQKAVGYICKCNGGRGAIREFAEHICLLMEKVNNSCQK
On to B1, for which the “Total Spectra Count Matrix A” value is 0, the “Total Spectra Count Matrix B” value was 6, the “Total Spectra Count Matrix C” value is reported as 0 and the “Total Spectra Count Matrix D” value is listed as 0.

B2: NAD(P) transhydrogenase, mitochondrial (protein, UniProt Q13423 44-1086, looked up)
NAD(P) transhydrogenase, …: CKAPVKPGIPYKQLTVGVPKEIFQNEKRVALSPAGVQNLVKQGFNVVVESGAGEASKFSDDHYRVAGAQIQGAKEVLASDLVVKVRAPMVNPTLGVHEADLLKTSGTLISFIYPAQNPELLNKLSQRKTTVLAMDQVPRVTIAQGYDALSSMANIAGYKAVVLAANHFGRFFTGQITAAGKVPPAKILIVGGGVAGLASAGAAKSMGAIVRGFDTRAAALEQFKSLGAEPLEVDLKESGEGQGGYAKEMSKEFIEAEMKLFAQQCKEVDILISTALIPGKKAPVLFNKEMIESMKEGSVVVDLAAEAGGNFETTKPGELYIHKGITHIGYTDLPSRMATQASTLYSNNITKLLKAISPDKDNFYFDVKDDFDFGTMGHVIRGTVVMKDGKVIFPAPTPKNIPQGAPVKQKTVAELEAEKAATITPFRKTMSTASAYTAGLTGILGLGIAAPNLAFSQMVTTFGLAGIVGYHTVWGVTPALHSPLMSVTNAISGLTAVGGLALMGGHLYPSTTSQGLAALAAFISSVNIAGGFLVTQRMLDMFKRPTDPPEYNYLYLLPAGTFVGGYLAALYSGYNIEQIMYLGSGLCCVGALAGLSTQGTARLGNALGMIGVAGGLAATLGVLKPGPELLAQMSGAMALGGTIGLTIAKRIQISDLPQLVAAFHSLVGLAAVLTCIAEYIIEYPHFATDAAANLTKIVAYLGTYIGGVTFSGSLIAYGKLQGLLKSAPLLLPGRHLLNAGLLAASVGGIIPFMVDPSFTTGITCLGSVSALSAVMGVTLTAAIGGADMPVVITVLNSYSGWALCAEGFLLNNNLLTIVGALIGSSGAILSYIMCVAMNRSLANVILGGYGTTSTAGGKPMEISGTHTEINLDNAIDMIREANSIIITPGYGLCAAKAQYPIADLVKMLTEQGKKVRFGIHPVAGRMPGQLNVLLAEAGVPYDIVLEMDEINHDFPDTDLVLVIGANDTVNSAAQEDPNSIIAGMPVLEVWKSKQVIVMKRSLGVGYAAVDNPIFYKPNTAMLLGDAKKTCDALQAKVRESYQK
For the molecule B2, the “Total Spectra Count Matrix A” value was 0, the “Total Spectra Count Matrix B” value was found to be 3, the “Total Spectra Count Matrix C” value turned out to be 0 and the “Total Spectra Count Matrix D” value is 0.

B3: Myelin expression factor 2 (protein, UniProt Q9P2K5 1-600, looked up)
Myelin expression factor 2: MADANKAEVPGATGGDSPHLQPAEPPGEPRREPHPAEAEKQQPQHSSSSNGVKMENDESAKEEKSDLKEKSTGSKKANRFHPYSKDKNSGAGEKKGPNRNRVFISNIPYDMKWQAIKDLMREKVGEVTYVELFKDAEGKSRGCGVVEFKDEEFVKKALETMNKYDLSGRPLNIKEDPDGENARRALQRTGGSFPGGHVPDMGSGLMNLPPSILNNPNIPPEVISNLQAGRLGSTIFVANLDFKVGWKKLKEVFSIAGTVKRADIKEDKDGKSRGMGTVTFEQAIEAVQAISMFNGQFLFDRPMHVKMDDKSVPHEEYRSHDGKTPQLPRGLGGIGMGLGPGGQPISASQLNIGGVMGNLGPGGMGMDGPGFGGMNRIGGGIGFGGLEAMNSMGGFGGVGRMGELYRGAMTSSMERDFGRGDIGINQGFGDSFGRLGSAMIGGFAGRIGSSNMGPVGSGISGGMGSMNSVTGGMGMGLDRMSSSFDRMGPGIGAILERSIDMDRGFLSGPMGSGMRERIGSKGNQIFVRNLPFDLTWQKLKEKFSQCGHVMFAEIKMENGKSKGCGTVRFDSPESAEKACRIMNGIKISGREIDVRLDRNA
Consider B3, for which the “Total Spectra Count Matrix A” value was 0, the “Total Spectra Count Matrix B” value is given as 2, the “Total Spectra Count Matrix C” value is given as 0 and the “Total Spectra Count Matrix D” value amounted to 0.

B4: Nucleolar protein 58 (protein, UniProt Q9Y2X3 1-529, looked up)
Nucleolar protein 58: MLVLFETSVGYAIFKVLNEKKLQEVDSLWKEFETPEKANKIVKLKHFEKFQDTAEALAAFTALMEGKINKQLKKVLKKIVKEAHEPLAVADAKLGGVIKEKLNLSCIHSPVVNELMRGIRSQMDGLIPGVEPREMAAMCLGLAHSLSRYRLKFSADKVDTMIVQAISLLDDLDKELNNYIMRCREWYGWHFPELGKIISDNLTYCKCLQKVGDRKNYASAKLSELLPEEVEAEVKAAAEISMGTEVSEEDICNILHLCTQVIEISEYRTQLYEYLQNRMMAIAPNVTVMVGELVGARLIAHAGSLLNLAKHAASTVQILGAEKALFRALKSRRDTPKYGLIYHASLVGQTSPKHKGKISRMLAAKTVLAIRYDAFGEDSSSAMGVENRAKLEARLRTLEDRGIRKISGTGKALAKTEKYEHKSEVKTYDPSGDSTLPTCSKKRKIEQVDKEDEITEKKAKKAKIKVKVEEEEEEKVAEEEETSVKKKKKRGKKKHIKEEPLSEEEPCTSTAIASPEKKKKKKKKRENED
Take B4: the “Total Spectra Count Matrix A” value amounted to 0, the “Total Spectra Count Matrix B” value was determined as 6, the “Total Spectra Count Matrix C” value came to 0 and the “Total Spectra Count Matrix D” value worked out at 0.

B5: Nucleolar complex protein 3 homolog (protein, UniProt Q8WTT2 1-800, looked up)
Nucleolar complex protein 3 …: MKARRNKKQIPSFRKLIKTSKVKLENKLKNKQFKQQSTLKKYRKEQRKLRQAVKDAVSKKPIPLENPKEKRPGKRIEREEEEEEEALPLDMMDEDDLQLMKDLGQRVSFLTRDLSSSEPVHAKKRKHERIIDKYEKIPRTLQTAPEKELIHLLPIKDKSGIIPQTREKPVTDSNKDEEDQEEERELEEEIIEDPIQELTIEEHLIERKKKLQEKKMHIAALASAILSDPENNIKKLKELRSMLMEQDPDVAVTVRKLVIVSLMELFKDITPSYKIRPLTEAEKSTKTRKETQKLREFEEGLVSQYKFYLENLEQMVKDWKQRKLKKSNVVSLKAYKGLAEVAVKSLCELLVALPHFNFHNNIIVLIVPLMNDMSKLISEMCCEAVKKLFKQDKLGQASLGVIKVISGFVKGRNYEVRPEMLKTFLCLRIKEVEVKKDTEDINKPKKFMTFKEKRKSLSRMQRKWKKAEEKLERELREAEASESTEKKLKLHTETLNIVFVTYFRILKKAQRSPLLPAVLEGLAKFAHLINVEFFDDLLVVLHTLIESGDLSYQESLHCVQTAFHILSGQGDVLNIDPLKFYTHLYKTLFKLHAGATNEGVEIVLQCLDVMLTKRRKQVSQQRALAFIKRLCTLALHVLPNSSIGILATTRILMHTFPKTDLLLDSESQGSGVFLPELDEPEYCNAQNTALWELHALRRHYHPIVQRFAAHLIAGAPSEGSGALKPELSRRSATELFEAYSMAEMTFNPPVESSNPKIKGKFLQGDSFLNEDLNQLIKRYSSEVATESPLDFTKYLKTSLH
For B5, the “Total Spectra Count Matrix A” value is given as 0, the “Total Spectra Count Matrix B” value stood at 5, the “Total Spectra Count Matrix C” value turned out to be 0 and the “Total Spectra Count Matrix D” value is listed as 0.

B6: Non-syndromic hearing impairment protein 5 (protein, UniProt O60443 1-496, looked up)
Gasdermin-E: MFAKATRNFLREVDADGDLIAVSNLNDSDKLQLLSLVTKKKRFWCWQRPKYQFLSLTLGDVLIEDQFPSPVVVESDFVKYEGKFANHVSGTLETALGKVKLNLGGSSRVESQSSFGTLRKQEVDLQQLIRDSAERTINLRNPVLQQVLEGRNEVLCVLTQKITTMQKCVISEHMQVEEKCGGIVGIQTKTVQVSATEDGNVTKDSNVVLEIPAATTIAYGVIELYVKLDGQFEFCLLRGKQGGFENKKRIDSVYLDPLVFREFAFIDMPDAAHGISSQDGPLSVLKQATLLLERNFHPFAELPEPQQTALSDIFQAVLFDDELLMVLEPVCDDLVSGLSPTVAVLGELKPRQQQDLVAFLQLVGCSLQGGCPGPEDAGSKQLFMTAYFLVSALAEMPDSAAALLGTCCKLQIIPTLCHLLRALSDDGVSDLEDPTLTPLKDTERFGIVQRLFASADISLERLKSSVKAVILKDSKVFPLLLCITLNGLCALGREHS
Take B6: the “Total Spectra Count Matrix A” value came to 0, the “Total Spectra Count Matrix B” value came out at 2, the “Total Spectra Count Matrix C” value is reported as 0 and the “Total Spectra Count Matrix D” value was determined as 0.

B7: Nucleolar complex protein 4 homolog (protein, UniProt Q9BVI4 1-516, looked up)
Nucleolar complex protein 4 …: MEREPGAAGVRRALGRRLEAVLASRSEANAVFDILAVLQSEDQEEIQEAVRTCSRLFGALLERGELFVGQLPSEEMVMTGSQGATRKYKVWMRHRYHSCCNRLGELLGHPSFQVKELALSALLKFVQLEGAHPLEKSKWEGNYLFPRELFKLVVGGLLSPEEDQSLLLSQFREYLDYDDTRYHTMQAAVDAVARVTGQHPEVPPAFWNNAFTLLSAVSLPRREPTVSSFYVKRAELWDTWKVAHLKEHRRVFQAMWLSFLKHKLPLSLYKKVLLIVHDAILPQLAQPTLMIDFLTRACDLGGALSLLALNGLFILIHKHNLEYPDFYRKLYGLLDPSVFHVKYRARFFHLADLFLSSSHLPAYLVAAFAKRLARLALTAPPEALLMVLPFICNLLRRHPACRVLVHRPHGPELDADPYDPGEEDPAQSRALESSLWELQALQRHYHPEVSKAASVINQALSMPEVSIAPLLELTAYEIFERDLKKKGPEPVPLEFIPAQGLLGRPGELCAQHFTLS
As for B7, the “Total Spectra Count Matrix A” value turned out to be 0, the “Total Spectra Count Matrix B” value is on record as 5, the “Total Spectra Count Matrix C” value was 0 and the “Total Spectra Count Matrix D” value stood at 0.

B8: Myosin light chain 6B (protein, UniProt P14649 1-208, looked up)
Myosin light chain 6B: MPPKKDVPVKKPAGPSISKPAAKPAAAGAPPAKTKAEPAVPQAPQKTQEPPVDLSKVVIEFNKDQLEEFKEAFELFDRVGDGKILYSQCGDVMRALGQNPTNAEVLKVLGNPKSDELKSRRVDFETFLPMLQAVAKNRGQGTYEDYLEGFRVFDKEGNGKVMGAELRHVLTTLGEKMTEEEVETVLAGHEDSNGCINYEAFLKHILSV
B8: the “Total Spectra Count Matrix A” value turned out to be 0, the “Total Spectra Count Matrix B” value is listed as 0, the “Total Spectra Count Matrix C” value was determined as 6 and the “Total Spectra Count Matrix D” value is 0.
